Reference: PMC7823860, “Flavonoid Glycosides with a Triazole Moiety for Marine Antifouling Applications: Synthesis and Biological Activity Evaluation” (Marine Drugs, 2020)

System: Mytilus galloprovincialis plantigrade larvae
Assay: Mussel (Mytilus galloprovincialis) larvae anti-settlement bioassay
Format: in vivo
Protocol: Mussel (Mytilus galloprovincialis) plantigrades were collected in juvenile aggregates during low neap tides at Memória beach, Matosinhos, Portugal (41°13′59″ N; 8°43′28″ W). In laboratory, mussel plantigrade larvae (0.5–2 mm) were isolated in a binocular magnifier (Olympus SZX2-ILLT, Tokyo, Japan) to a petri dish with filtered seawater, and those with functional foot and competent exploring behaviour were selected for the bioassays. The flavonoids were screened at 50 µM in 24-well microplates with 4 well replicates per condition and 5 larvae per well, for 15 h, in the darkness at 18 ± 1 °C, following Almeida et al. (2015). Test solutions were obtained by dilution of the compounds stock solutions (50 mM) in DMSO and prepared with filtered seawater. All bioassays included a negative control with DMSO and a positive control with CuSO4, a potent AF agent. After the exposure period, the anti-settlement activity was determined by the presence/absence of attached byssal threads produced by each individual larvae.
All compounds that caused more than 60% of settlement inhibition (≤40% of settlement) in the screening bioassay were considered active and selected for the determination of the semi-maximum response concentration that inhibited 50% of larval settlement (EC50), at compounds concentrations of 3.12, 6.25, 12.5, 25, 50, 100, 200 μM.
Datasets from anti-settlement, antibacterial and anti-microalgal bioassay, and determination of AChE and Tyr activities, were analysed by one-way analysis of variance (ANOVA) followed by a multi-comparisons Dunnett’s test against negative control (p < 0.05). For the AF bioassays, the half maximum response concentration (EC50) values for each compound, when applicable, were calculated using Probit regression analysis. Significance was considered at p < 0.01, and 95% lower and upper confidence limits (95%LCL; UCL). The software IBM SPSS Statistics 26 (Armonk, New York, USA) was used for statistical analysis.

Structure (SMILES): COc1cc(-c2cc(=O)c3c(O)cc(O)cc3o2)cc(OC)c1OC [1b]
- LC50/EC50 (therapeutic ratio): > 23.98

Structure (SMILES): COc1ccc(-c2cc(=O)c3c(O)cc(OCc4cn(CCO[C@@H]5O[C@H](COC(C)=O)[C@@H](OC(C)=O)[C@H](OC(C)=O)[C@H]5OC(C)=O)nn4)cc3o2)cc1OC [4a, (2R,3R,4S,5R,6R)-2-(acetoxymethyl)-6-(2-(4-(((2-(3,4-dimethoxyphenyl)-5-hydroxy-4-oxo-4H-chromen-7-yl)oxy)methyl)-1H-1,2,3-triazol-1-yl)ethoxy)tetrahydro-2H-pyran-3,4,5-triyl triacetate]
- LC50/EC50 (therapeutic ratio): > 4.70

Structure (SMILES): COc1cc(-c2cc(=O)c3c(O)cc(OCc4cn(CCO[C@@H]5O[C@H](COC(C)=O)[C@@H](OC(C)=O)[C@H](OC(C)=O)[C@H]5OC(C)=O)nn4)cc3o2)cc(OC)c1OC [4b, (2R,3R,4S,5R,6R)-2-(acetoxymethyl)-6-(2-(4-(((5-hydroxy-4-oxo-2-(3,4,5-trimethoxyphenyl)-4H-chromen-7-yl)oxy)methyl)-1H-1,2,3-triazol-1-yl)ethoxy)tetrahydro-2H-pyran-3,4,5-triyl triacetate]
- LC50/EC50 (therapeutic ratio): > 4.15

Structure (SMILES): C#CCOc1ccc(C(=O)/C=C/c2ccc(OC)c(OC)c2)c(O)c1 [6a]
- LC50/EC50 (therapeutic ratio): > 2.37

Structure (SMILES): C#CCOc1ccc(C(=O)/C=C/c2cc(OC)c(OC)c(OC)c2)c(O)c1 [6b]
- LC50/EC50 (therapeutic ratio): > 2.34

Structure (SMILES): COc1cc(/C=C/C(=O)c2ccc(OCc3cn([C@@H]4O[C@H](COC(C)=O)[C@@H](OC(C)=O)[C@H](OC(C)=O)[C@H]4OC(C)=O)nn3)cc2O)cc(OC)c1OC [7b, (2R,3R,4S,5R,6R)-2-(acetoxymethyl)-6-(4-((3-hydroxy-4-((E)-3-(3,4,5-trimethoxyphenyl)acryloyl)phenoxy)methyl)-1H-1,2,3-triazol-1-yl)tetrahydro-2H-pyran-3,4,5-triyl triacetate]
- LC50/EC50 (therapeutic ratio): > 60.98

Structure (SMILES): COc1ccc(/C=C/C(=O)c2ccc(OCc3cn(CCO[C@@H]4O[C@H](COC(C)=O)[C@@H](OC(C)=O)[C@H](OC(C)=O)[C@H]4OC(C)=O)nn3)cc2O)cc1OC [8a, (2R,3R,4S,5R,6R)-2-(acetoxymethyl)-6-(2-(4-((4-((E)-3-(3,4-dimethoxyphenyl)acryloyl)-3-hydroxyphenoxy)methyl)-1H-1,2,3-triazol-1-yl)ethoxy)tetrahydro-2H-pyran-3,4,5-triyl triacetate]
- LC50/EC50 (therapeutic ratio): > 5.58

Structure (SMILES): COc1cc(/C=C/C(=O)c2ccc(OCc3cn(CCO[C@H]4O[C@H](COC(C)=O)[C@@H](OC(C)=O)[C@H](OC(C)=O)[C@@H]4OC(C)=O)nn3)cc2O)cc(OC)c1OC [8b, (2R,3R,4S,5S,6S)-2-(acetoxymethyl)-6-(2-(4-((3-hydroxy-4-((E)-3-(3,4,5-trimethoxyphenyl)acryloyl)phenoxy)methyl)-1H-1,2,3-triazol-1-yl)ethoxy)tetrahydro-2H-pyran-3,4,5-triyl triacetate]
- LC50/EC50 (therapeutic ratio): > 3.71

Structure (SMILES): COc1ccc(/C=C/C(=O)c2ccc(O)cc2O)cc1OC [11a]
- LC50/EC50 (therapeutic ratio): > 11.05

Structure (SMILES): COc1cc(/C=C/C(=O)c2ccc(O)cc2O)cc(OC)c1OC [11b]
- LC50/EC50 (therapeutic ratio): > 20.75
